From the supplement of paper PMC12823440, “Inhibitors supercharge kinase turnover through native proteolytic circuits” (Nature, 2025)
Counter-ions that a name gives are not always drawn. The list shows a part of the results. Hit calls seldom repeat between salt and free forms of one compound.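 Kinases were expressed as nanoluciferase fusions in K562 cells and luminescence was read every 4 h between 2 and 18 h as percent of control, DMSO set to 100% and a positive control to 0%. A time point counts as decreased when the signal drops significantly (2 sigma). The hit call is the authors' own, does not follow from the count of time points alone, and its rule is not shown.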

By UniProt entry, the sequences of proteins in these tests, tags left out. Where a name states a change or a piece, a line headed by the entry shows the natural chain unless it says otherwise.
UniProt P36888, whole entry: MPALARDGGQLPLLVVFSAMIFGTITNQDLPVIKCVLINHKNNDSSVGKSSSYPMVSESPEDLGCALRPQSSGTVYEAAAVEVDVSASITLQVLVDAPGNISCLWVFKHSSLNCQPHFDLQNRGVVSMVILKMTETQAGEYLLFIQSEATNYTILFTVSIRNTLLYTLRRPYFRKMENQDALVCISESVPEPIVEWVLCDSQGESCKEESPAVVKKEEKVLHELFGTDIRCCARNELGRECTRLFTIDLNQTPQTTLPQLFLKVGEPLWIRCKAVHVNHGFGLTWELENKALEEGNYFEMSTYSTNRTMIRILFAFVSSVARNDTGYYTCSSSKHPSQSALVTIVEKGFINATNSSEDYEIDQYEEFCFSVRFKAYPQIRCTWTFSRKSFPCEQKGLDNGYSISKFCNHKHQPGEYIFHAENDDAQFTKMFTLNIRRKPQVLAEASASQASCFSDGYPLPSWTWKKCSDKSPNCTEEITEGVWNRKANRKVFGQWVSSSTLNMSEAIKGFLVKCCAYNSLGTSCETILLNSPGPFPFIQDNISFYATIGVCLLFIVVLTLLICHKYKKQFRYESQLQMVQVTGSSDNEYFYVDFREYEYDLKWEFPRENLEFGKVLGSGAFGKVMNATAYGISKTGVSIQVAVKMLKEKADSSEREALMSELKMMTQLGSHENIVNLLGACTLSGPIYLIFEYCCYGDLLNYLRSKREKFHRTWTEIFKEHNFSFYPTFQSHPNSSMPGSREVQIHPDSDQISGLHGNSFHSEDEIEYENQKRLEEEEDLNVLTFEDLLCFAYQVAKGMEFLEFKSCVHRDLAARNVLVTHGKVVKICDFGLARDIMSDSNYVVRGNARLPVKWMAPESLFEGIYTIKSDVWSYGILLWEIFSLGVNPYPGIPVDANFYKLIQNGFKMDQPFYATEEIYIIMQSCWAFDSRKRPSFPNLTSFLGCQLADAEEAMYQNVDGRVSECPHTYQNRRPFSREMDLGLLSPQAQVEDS
UniProt P06241, whole entry, looked up: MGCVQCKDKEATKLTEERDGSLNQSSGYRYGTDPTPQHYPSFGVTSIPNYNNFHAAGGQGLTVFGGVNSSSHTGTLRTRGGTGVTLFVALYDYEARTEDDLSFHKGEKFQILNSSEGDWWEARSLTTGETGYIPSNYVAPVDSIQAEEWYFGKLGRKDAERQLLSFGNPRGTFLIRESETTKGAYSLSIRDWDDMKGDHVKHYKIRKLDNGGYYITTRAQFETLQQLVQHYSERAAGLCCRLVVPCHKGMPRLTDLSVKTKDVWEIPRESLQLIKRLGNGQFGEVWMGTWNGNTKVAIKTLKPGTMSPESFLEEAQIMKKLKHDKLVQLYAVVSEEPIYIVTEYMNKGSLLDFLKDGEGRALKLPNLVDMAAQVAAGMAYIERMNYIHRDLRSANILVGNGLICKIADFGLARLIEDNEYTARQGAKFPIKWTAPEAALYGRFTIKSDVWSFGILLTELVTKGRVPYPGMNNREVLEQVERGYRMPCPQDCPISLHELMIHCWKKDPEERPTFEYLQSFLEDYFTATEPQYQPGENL
UniProt P49840: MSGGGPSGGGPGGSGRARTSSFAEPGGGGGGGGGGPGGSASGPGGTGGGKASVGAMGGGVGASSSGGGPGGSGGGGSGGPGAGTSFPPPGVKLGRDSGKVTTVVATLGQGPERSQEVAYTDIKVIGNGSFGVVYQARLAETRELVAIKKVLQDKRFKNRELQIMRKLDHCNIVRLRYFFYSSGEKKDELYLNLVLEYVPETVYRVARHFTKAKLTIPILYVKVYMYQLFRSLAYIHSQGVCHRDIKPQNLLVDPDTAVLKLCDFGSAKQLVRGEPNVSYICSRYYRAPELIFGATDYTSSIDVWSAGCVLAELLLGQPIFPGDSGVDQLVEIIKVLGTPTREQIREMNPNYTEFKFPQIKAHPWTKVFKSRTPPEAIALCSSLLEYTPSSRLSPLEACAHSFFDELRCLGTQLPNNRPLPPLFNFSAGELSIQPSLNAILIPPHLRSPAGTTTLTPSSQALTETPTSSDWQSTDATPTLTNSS
UniProt P14616: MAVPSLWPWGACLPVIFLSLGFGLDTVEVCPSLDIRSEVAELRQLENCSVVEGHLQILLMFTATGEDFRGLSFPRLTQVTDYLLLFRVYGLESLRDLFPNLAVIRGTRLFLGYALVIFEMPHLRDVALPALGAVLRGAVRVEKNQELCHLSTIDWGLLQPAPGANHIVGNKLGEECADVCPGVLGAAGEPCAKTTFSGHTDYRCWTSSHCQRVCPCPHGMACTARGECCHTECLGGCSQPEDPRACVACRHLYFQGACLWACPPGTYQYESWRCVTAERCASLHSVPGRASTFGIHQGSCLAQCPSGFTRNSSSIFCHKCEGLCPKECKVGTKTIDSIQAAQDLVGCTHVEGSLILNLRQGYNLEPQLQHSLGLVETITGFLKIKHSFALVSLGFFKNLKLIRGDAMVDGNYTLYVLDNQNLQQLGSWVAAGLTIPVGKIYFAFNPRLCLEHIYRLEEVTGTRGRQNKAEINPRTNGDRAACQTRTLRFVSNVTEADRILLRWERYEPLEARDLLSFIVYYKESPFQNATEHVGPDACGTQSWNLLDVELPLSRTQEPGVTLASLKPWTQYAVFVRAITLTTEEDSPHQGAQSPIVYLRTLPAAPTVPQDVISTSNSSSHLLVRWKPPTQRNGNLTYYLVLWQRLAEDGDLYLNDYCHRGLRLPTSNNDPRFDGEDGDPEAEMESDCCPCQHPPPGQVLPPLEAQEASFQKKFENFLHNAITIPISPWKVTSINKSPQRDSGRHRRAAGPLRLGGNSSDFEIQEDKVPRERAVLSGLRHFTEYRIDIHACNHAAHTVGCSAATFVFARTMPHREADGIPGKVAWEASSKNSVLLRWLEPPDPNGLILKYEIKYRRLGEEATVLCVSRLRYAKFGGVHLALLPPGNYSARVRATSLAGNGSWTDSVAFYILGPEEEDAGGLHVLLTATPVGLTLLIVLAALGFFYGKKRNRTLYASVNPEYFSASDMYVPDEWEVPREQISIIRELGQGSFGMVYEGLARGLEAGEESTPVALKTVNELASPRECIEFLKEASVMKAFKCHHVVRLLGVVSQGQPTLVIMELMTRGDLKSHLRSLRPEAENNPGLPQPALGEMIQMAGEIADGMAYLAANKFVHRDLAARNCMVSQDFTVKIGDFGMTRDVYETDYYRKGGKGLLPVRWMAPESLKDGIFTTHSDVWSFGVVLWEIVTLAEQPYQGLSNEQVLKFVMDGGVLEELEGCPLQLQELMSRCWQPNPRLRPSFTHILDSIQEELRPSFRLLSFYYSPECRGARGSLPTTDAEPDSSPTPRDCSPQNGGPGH
UniProt Q9Y616: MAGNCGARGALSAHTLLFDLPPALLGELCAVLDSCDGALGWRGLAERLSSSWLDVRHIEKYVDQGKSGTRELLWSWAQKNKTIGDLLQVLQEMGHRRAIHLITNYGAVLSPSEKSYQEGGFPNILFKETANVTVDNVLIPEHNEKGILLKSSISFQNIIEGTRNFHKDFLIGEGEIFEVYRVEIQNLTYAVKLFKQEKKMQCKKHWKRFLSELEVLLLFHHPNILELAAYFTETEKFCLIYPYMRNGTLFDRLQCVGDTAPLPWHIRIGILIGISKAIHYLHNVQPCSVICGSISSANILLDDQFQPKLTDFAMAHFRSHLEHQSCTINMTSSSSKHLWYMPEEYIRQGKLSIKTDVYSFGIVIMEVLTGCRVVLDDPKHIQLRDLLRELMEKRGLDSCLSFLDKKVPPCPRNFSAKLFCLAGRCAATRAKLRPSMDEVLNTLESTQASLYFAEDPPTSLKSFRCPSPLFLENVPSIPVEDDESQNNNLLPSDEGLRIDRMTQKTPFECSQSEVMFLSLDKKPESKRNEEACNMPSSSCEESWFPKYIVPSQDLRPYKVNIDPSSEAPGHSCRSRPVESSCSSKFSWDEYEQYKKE
UniProt P06239: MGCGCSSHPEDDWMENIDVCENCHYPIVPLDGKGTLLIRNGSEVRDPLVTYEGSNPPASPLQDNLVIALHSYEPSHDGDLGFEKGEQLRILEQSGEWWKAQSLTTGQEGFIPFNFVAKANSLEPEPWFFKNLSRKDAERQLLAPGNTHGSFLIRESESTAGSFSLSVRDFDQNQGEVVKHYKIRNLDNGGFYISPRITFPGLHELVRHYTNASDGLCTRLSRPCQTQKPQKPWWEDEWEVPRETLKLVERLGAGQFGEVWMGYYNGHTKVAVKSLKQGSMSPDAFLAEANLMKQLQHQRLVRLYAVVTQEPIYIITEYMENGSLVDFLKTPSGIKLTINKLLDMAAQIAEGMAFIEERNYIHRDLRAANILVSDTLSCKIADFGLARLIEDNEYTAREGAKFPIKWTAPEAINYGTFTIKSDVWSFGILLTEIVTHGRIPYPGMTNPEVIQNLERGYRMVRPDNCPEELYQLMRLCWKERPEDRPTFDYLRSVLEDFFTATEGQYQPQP
UniProt P53667: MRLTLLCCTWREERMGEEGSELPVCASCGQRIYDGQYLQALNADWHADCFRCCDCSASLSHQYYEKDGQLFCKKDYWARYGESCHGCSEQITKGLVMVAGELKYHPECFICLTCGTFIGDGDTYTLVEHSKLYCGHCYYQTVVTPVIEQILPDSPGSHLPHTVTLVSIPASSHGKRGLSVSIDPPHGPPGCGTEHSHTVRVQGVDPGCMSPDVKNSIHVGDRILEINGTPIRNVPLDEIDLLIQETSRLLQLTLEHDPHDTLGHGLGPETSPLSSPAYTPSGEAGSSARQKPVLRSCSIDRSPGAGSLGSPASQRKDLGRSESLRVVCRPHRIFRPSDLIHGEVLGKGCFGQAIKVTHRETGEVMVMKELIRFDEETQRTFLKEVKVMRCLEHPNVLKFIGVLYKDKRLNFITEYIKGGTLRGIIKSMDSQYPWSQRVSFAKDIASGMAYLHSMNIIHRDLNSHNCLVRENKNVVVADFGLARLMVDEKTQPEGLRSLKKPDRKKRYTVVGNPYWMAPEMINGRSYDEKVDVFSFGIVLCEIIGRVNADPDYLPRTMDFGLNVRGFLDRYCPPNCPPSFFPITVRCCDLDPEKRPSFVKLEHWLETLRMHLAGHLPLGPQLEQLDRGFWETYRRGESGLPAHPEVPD
UniProt P53671: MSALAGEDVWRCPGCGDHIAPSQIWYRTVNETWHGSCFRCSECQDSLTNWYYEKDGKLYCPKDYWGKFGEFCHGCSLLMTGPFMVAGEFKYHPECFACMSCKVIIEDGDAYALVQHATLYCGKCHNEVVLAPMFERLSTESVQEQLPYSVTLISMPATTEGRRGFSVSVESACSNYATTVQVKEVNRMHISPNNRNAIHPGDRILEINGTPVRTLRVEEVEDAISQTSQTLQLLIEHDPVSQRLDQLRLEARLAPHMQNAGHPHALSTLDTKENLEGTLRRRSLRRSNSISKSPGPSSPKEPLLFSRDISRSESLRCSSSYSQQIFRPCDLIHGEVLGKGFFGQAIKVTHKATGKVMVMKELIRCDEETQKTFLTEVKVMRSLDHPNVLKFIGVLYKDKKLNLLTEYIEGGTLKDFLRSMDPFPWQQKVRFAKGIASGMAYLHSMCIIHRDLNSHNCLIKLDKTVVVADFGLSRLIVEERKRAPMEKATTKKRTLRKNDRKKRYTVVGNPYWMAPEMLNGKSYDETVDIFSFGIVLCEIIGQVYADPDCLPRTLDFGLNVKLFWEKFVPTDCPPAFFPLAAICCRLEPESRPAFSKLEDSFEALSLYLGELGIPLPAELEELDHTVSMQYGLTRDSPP

What was measured:
Assay in all cases: number of time points (of 5) at which kinase-Nluc abundance scored as decreased, DMSO-normalised (count); higher = more persistent destabilization
Settings in all cases: K562; 2-18 h
[1] = target: FLT3 (UniProt P36888)
[2] = target: FYN (UniProt P06241)
[3] = target: GSK3A (UniProt P49840)
[4] = target: HER2 (UniProt P04626)
[5] = target: INSRR (UniProt P14616)
[6] = target: IRAK3 (UniProt Q9Y616)
[7] = target: JAK1 (UniProt P23458)
[8] = target: LCK (UniProt P06239)
[9] = target: LIMK1 (UniProt P53667)
[10] = target: LIMK2 (UniProt P53671)

SMILES | number of time points [1] | number of time points [2] | number of time points [3] | number of time points [4] | number of time points [5] | number of time points [6] | number of time points [7] | number of time points [8] | number of time points [9] | number of time points [10]
O=C(O)CCc1ccc(NCc2cccc(Oc3ccccc3)c2)cc1 (10 µM) | 0 | 0 | 0 | 0 | 0 | 0 | 0 | 0 | 0 | 0
O=C1NCCCc2c1oc1ccc(O)cc21 (10 µM) | 0 | 0 | 0 | 0 | 0 | 0 | 0 | 0 | 0 | 0
COc1c(C)c(C(=O)c2ccc(N)c(C(=O)O)c2)n2ccccc12 (10 µM) | 0 | 0 | 0 | 0 | 0 | 0 | 0 | 0 | 0 | 0
NS(=O)(=O)c1ccc(N2N=C(c3ccccc3)CC2c2ccccc2)cc1 (stereo not given) (10 µM) | 0 | 0 | 0 | 0 | 0 | 0 | 0 | 0 | 0 | 0
CC(C)n1cnc2c(Nc3cccc(Cl)c3)nc(NCCO)nc21 (10 µM) | 0 | 1 | 0 | 0 | 0 | 0 | 0 | 0 | 0 | 0
C=C[C@H]1[C@H](O[C@@H]2O[C@H](CO)[C@@H](O)[C@H](O)[C@H]2OC(=O)c2c(O)cc(O)cc2-c2cccc(O)c2)OC=C2C(=O)OCC[C@H]21 [Amarogentin] (10 µM) | 0 | 0 | 0 | 0 | 0 | 0 | 0 | 0 | 0 | 0
CCN1C(=O)CNc2ncc(-c3ccc(-c4nc[nH]n4)nc3C)nc21 [CC-115 (hydrochloride)] (2.5 µM) | 3 | 3 | 0 | 3 | 2 | 3 | 3 | 0 | 2 | 2
Nc1cccc(S(=O)(=O)N2CCCN(S(=O)(=O)c3ccc4c(c3)OCCO4)CC2)c1 (10 µM) | 0 | 0 | 0 | 0 | 0 | 0 | 0 | 0 | 0 | 0
CN(C)c1ncnc2nc[nH]c12 [6-(Dimethylamino)purine] (10 µM) | 0 | 0 | 0 | 0 | 0 | 0 | 0 | 0 | 0 | 0
Cc1cc(Nc2nc(N[C@@H](C)c3ncc(F)cn3)ncc2Cl)[nH]n1 (10 µM) | 0 | 0 | 0 | 0 | 0 | 0 | 0 | 0 | 0 | 0
CC(C)(C)Cn1c(N)nc2ccc(-c3[nH]c(C(C)(C)C)nc3-c3ccc(F)cc3)nc21 [Ralimetinib dimesylate] (2.5 µM) | 0 | 0 | 0 | 0 | 0 | 0 | 0 | 0 | 0 | 0
O=C(O)c1ccc(N2N=C(Cc3ccccc3)C(=Cc3ccc(-c4ccccc4F)o3)C2=O)cc1 (10 µM) | 0 | 0 | 0 | 0 | 0 | 0 | 0 | 0 | 0 | 0
CN(C)Cc1cccc(N=C(c2ccccc2)c2c(O)[nH]c3cc(C(=O)N(C)C)ccc23)c1 (10 µM) | 0 | 0 | 0 | 0 | 0 | 0 | 0 | 0 | 0 | 0
O=c1[nH]ccc2cc(OC3CCNCC3)ccc12 (10 µM) | 0 | 0 | 0 | 0 | 0 | 0 | 0 | 0 | 0 | 0
C=CS(=O)(=O)c1ccc(Nc2nc(OCC3CCCCC3)c3[nH]cnc3n2)cc1 (2.5 µM) | 0 | 0 | 0 | 0 | 0 | 3 | 0 | 0 | 0 | 0
O=C(Nc1ccc(Cl)c(Cl)c1)Nc1ccc2nnsc2c1 (10 µM) | 0 | 0 | 0 | 0 | 0 | 0 | 0 | 0 | 0 | 0
COc1cnccc1Nc1nc(-c2nn(Cc3c(F)cc(OCCO)cc3F)c3ccccc23)ncc1OC (10 µM) | 0 | 0 | 0 | 0 | 0 | 0 | 0 | 0 | 0 | 0

SMILES | number of time points [1] | number of time points [2] | number of time points [3] | number of time points [4] | number of time points [5] | number of time points [6] | number of time points [7] | number of time points [8] | number of time points [9] | number of time points [10]
CCOc1ccccc1C=C1C(=O)Nc2ccccc21 (10 µM) | 0 | 0 | 0 | 0 | 0 | 0 | 1 | 0 | 0 | 0
CC(CCc1ccccn1)(CCc1ccccn1)C(=O)c1ccccc1 (10 µM) | 0 | 0 | 0 | 0 | 0 | 0 | 0 | 0 | 0 | 0
O=c1nc(N2CCOCC2)oc2c(-c3cccc4c3sc3ccccc34)cccc12 (10 µM) | 0 | 0 | 0 | 0 | 0 | 0 | 0 | 0 | 0 | 0
c1ccc(-c2nn3c(c2-c2ccnc4cc(OCCN5CCOCC5)ccc24)CCC3)nc1 (10 µM) | 0 | 0 | 0 | 0 | 0 | 0 | 0 | 0 | 0 | 0
CC(C)(C)c1cc(C(c2cc3c(cc2O)OCO3)N2CCOCC2)cc(C(C)(C)C)c1O (stereo not given) (2.5 µM) | 0 | 0 | 0 | 0 | 0 | 0 | 0 | 0 | 0 | 0
CN1CC[C@H](c2c(O)cc(O)c3c(=O)cc(-c4ccc(C(F)(F)F)cc4Cl)oc23)[C@H]1CO [(2S,3R)-Voruciclib (hydrochloride)] (2.5 µM) | 1 | 3 | 0 | 0 | 0 | 2 | 0 | 0 | 0 | 0
COc1cc(C(=O)N2CCC(N3CCN(C)CC3)CC2)ccc1Nc1ncc2c(n1)N(C)c1ccccc1C(=O)N2C (10 µM) | 0 | 0 | 0 | 0 | 0 | 0 | 0 | 0 | 0 | 0
CCCNC(=O)c1cn2ncnc(Nc3cc(C(=O)NC4CC4)ccc3C)c2c1C (10 µM) | 0 | 0 | 0 | 0 | 0 | 0 | 0 | 0 | 0 | 0
c1ccc(-c2oc3ncnc(NC[C@@H]4CCCO4)c3c2-c2ccccc2)cc1 (2.5 µM) | 0 | 0 | 0 | 0 | 0 | 0 | 0 | 0 | 0 | 0
CCCCCCCC/C=C\CCCCCCCC(=O)NCC(=O)O [N-Oleoyl glycine] (10 µM) | 0 | 0 | 0 | 0 | 0 | 0 | 0 | 0 | 0 | 0
CCCCOc1ccc(CC/C=C2\SC(=O)N(CCN)C2=O)cc1 [K145 (hydrochloride)] (2.5 µM) | 0 | 0 | 0 | 0 | 0 | 0 | 0 | 0 | 0 | 0
COc1ncc(Nc2ncc([C@@H](C)N3CCN(S(C)(=O)=O)CC3)cc2-c2nc(C)nc(N)n2)cc1F (10 µM) | 0 | 0 | 0 | 0 | 0 | 0 | 0 | 0 | 0 | 0
C=CC(=O)N1CCC[C@@H](n2nc(C(=O)Nc3ccc(CC(=O)N(C)C)c(C)c3C)c3c(N)ncnc32)C1 (10 µM) | 0 | 0 | 0 | 0 | 0 | 0 | 0 | 0 | 0 | 0
CC1(N)CCN(c2cnc3c(-c4cccc(Cl)c4Cl)[nH]nc3n2)CC1 (2.5 µM) | 0 | 0 | 0 | 0 | 0 | 0 | 0 | 0 | 0 | 0
COc1ccc2c(c1OC)OC1c3ccc(O)cc3OCC21 (stereo not given) [Methylnissolin] (10 µM) | 0 | 0 | 0 | 0 | 0 | 0 | 0 | 0 | 0 | 0
CC[C@H](C)[C@H](NC(=O)[C@H](CCC(=O)O)NC(=O)[C@H](CCCN=C(N)N)NC(=O)[C@H](CCCN=C(N)N)NC(=O)[C@@H](N)CCCCN)C(=O)N[C@@H](CC(C)C)C(=O)N[C@@H](CO)C(=O)N[C@@H](CCCN=C(N)N)C(=O)N[C@@H](CCCN=C(N)N)C(=O)N1CCC[C@H]1C(=O)N[C@@H](CO)C(=O)N[C@@H](Cc1ccc(O)cc1)C(=O)N[C@@H](CCCN=C(N)N)C(=O)O [CREBtide] (10 µM) | 0 | 0 | 0 | 0 | 0 | 0 | 0 | 0 | 0 | 0
Nc1cc(C(F)F)c(-c2nc(N3C4CCC3COC4)nc(N3C4CCC3COC4)n2)cn1 (2.5 µM) | 0 | 0 | 0 | 2 | 0 | 0 | 0 | 0 | 0 | 0

2 compounds drawn at random from the list so far:
SMILES | number of time points [1] | number of time points [2] | number of time points [3] | number of time points [4] | number of time points [5] | number of time points [6] | number of time points [7] | number of time points [8] | number of time points [9] | number of time points [10]
CC1(N)CCN(c2cnc3c(-c4cccc(Cl)c4Cl)[nH]nc3n2)CC1 (2.5 µM) | 0 | 0 | 0 | 0 | 0 | 0 | 0 | 0 | 0 | 0
COc1ncc(Nc2ncc([C@@H](C)N3CCN(S(C)(=O)=O)CC3)cc2-c2nc(C)nc(N)n2)cc1F (10 µM) | 0 | 0 | 0 | 0 | 0 | 0 | 0 | 0 | 0 | 0
